# Test results: the supplement of paper PMC4604168 (melanoma cell lines)
# The list shows a part of the results. Many values rest on one well or one pass, so single values are uncertain.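 Cells were imaged in 1,536-well plates, and nuclei stained with an antibody against cleaved PARP were counted against all DNA-stained nuclei to give the apoptosis fraction. Screening doses were chosen to leave most cells alive, and resting and induced cleaved-PARP levels differ strongly between cell lines.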
# Tests used:
# Assay in all cases: cleaved PARP positive nuclei fraction relative to DMSO control; melanoma cells; higher = more apoptosis
# Details in all cases: library dose: low library concentration; 72 h
# MZ2-MEL = tested on: MZ2-MEL
# MeWo = tested on: MeWo
# RPMI7951 = tested on: RPMI7951
# RVH-421 = tested on: RVH-421
# SkMel28 = tested on: SkMel28
# SkMel2 = tested on: SkMel2
# SkMel30 = tested on: SkMel30
# SkMel5 = tested on: SkMel5
# UACC257 = tested on: UACC257
# UACC62 = tested on: UACC62
# WM115 = tested on: WM115
# WM1716 = tested on: WM1716
# WM1745 = tested on: WM1745
# WM3526 = tested on: WM3526
# WM3619 = tested on: WM3619
# WM451Lu = tested on: WM451Lu
SMILES,cleaved PARP positive nuclei fraction (MZ2-MEL) [%],cleaved PARP positive nuclei fraction (MeWo) [%],cleaved PARP positive nuclei fraction (RPMI7951) [%],cleaved PARP positive nuclei fraction (RVH-421) [%],cleaved PARP positive nuclei fraction (SkMel28) [%],cleaved PARP positive nuclei fraction (SkMel2) [%],cleaved PARP positive nuclei fraction (SkMel30) [%],cleaved PARP positive nuclei fraction (SkMel5) [%],cleaved PARP positive nuclei fraction (UACC257) [%],cleaved PARP positive nuclei fraction (UACC62) [%],cleaved PARP positive nuclei fraction (WM115) [%],cleaved PARP positive nuclei fraction (WM1716) [%],cleaved PARP positive nuclei fraction (WM1745) [%],cleaved PARP positive nuclei fraction (WM3526) [%],cleaved PARP positive nuclei fraction (WM3619) [%],cleaved PARP positive nuclei fraction (WM451Lu) [%]
"C[C@]1(O)C[C@@H](c2nc(-c3ccc4ccc(-c5ccccc5)nc4c3)c3c(N)nccn32)C1 + O=C(O)C(=O)Nc1sc2c(c1C(=O)O)CCNC2 [TCS401] (first compound 0.4 µM, partner dose 1.66667 µM)",305,94.6,229,45.6,50.5,118,290,107,106,689,99.1,47.7,134,306,114,78.9
"CC(=O)O[C@@]12CO[C@@H]1C[C@H](O)[C@@]1(C)C(=O)[C@H](O)C3=C(C)[C@@H](OC(=O)[C@H](O)[C@@H](NC(=O)OC(C)(C)C)c4ccccc4)C[C@@](O)([C@@H](OC(=O)c4ccccc4)[C@H]21)C3(C)C [Docetaxel] + CN(C)S(=O)(=O)c1ccc2c(c1)/C(=C/c1cc3c([nH]1)CCCC3)C(=O)N2 [SU6656] (first compound 0.0001 µM, partner dose 0.4 µM)",639,296,494,109,312,402,209,104,233,114,399,662,233,188,115,91.1
"Cn1sc(=O)n(Cc2ccccc2)c1=O + COc1cc(Nc2ncc(F)c(Nc3ccc4c(n3)NC(=O)C(C)(C)O4)n2)cc(OC)c1OC [Tamatinib] (first compound 0.4 µM, partner dose 0.4 µM)",111,75,53.9,130,129,135,77,85.6,157,116,107,133,138,142,155,79.9
"CCN(CC)CCNC(=O)c1c(C)[nH]c(/C=C2\C(=O)Nc3ccc(F)cc32)c1C [sunitinib] + COc1ccc(COc2ccc(Cc3cnc(N)nc3N)cc2OC)cc1 [GW2580] (first compound 0.4 µM, partner dose 1 µM)",68.3,93.1,131,175,141,131,125,81.8,156,126,84.9,76.6,144,39.1,82.5,110
"CCCCCCCCc1ccc(CCC(N)(CO)CO)cc1 [fingolimod] + O=C(Nc1ccccc1)c1cc([N+](=O)[O-])ccc1Cl [GW9662] (first compound 2 µM, partner dose 2 µM)",64.7,44.7,64.1,112,204,21.3,70.3,72.2,122,174,53.6,143,126,211,115,45.5
"C[C@]1(O)C[C@@H](c2nc(-c3ccc4ccc(-c5ccccc5)nc4c3)c3c(N)nccn32)C1 + COc1cc2c(Oc3ccc4[nH]c(C)cc4c3F)ncnc2cc1OCCCN1CCCC1 [cediranib] (first compound 0.4 µM, partner dose 0.4 µM)",83.3,50.4,73.6,64.5,123,133,70.9,250,115,173,19.6,112,121,34.1,84.1,99.2
"CCN(CC)CCNC(=O)c1c(C)[nH]c(/C=C2\C(=O)Nc3ccc(F)cc32)c1C [sunitinib] + c1cc(-c2cnn3cc(-c4ccc(OCCN5CCCCC5)cc4)cnc23)ccn1 [Dorsomorphin] (first compound 0.4 µM, partner dose 0.4 µM)",88.1,152,57.9,135,151,53.4,252,76.6,49.7,145,178,61.5,148,76.8,76.2,198
"C[C@]1(O)C[C@@H](c2nc(-c3ccc4ccc(-c5ccccc5)nc4c3)c3c(N)nccn32)C1 + Cn1cncc1[C@@](N)(c1ccc(Cl)cc1)c1ccc2c(c1)c(-c1cccc(Cl)c1)cc(=O)n2C [tipifarnib] (first compound 0.4 µM, partner dose 0.01 µM)",69.7,470,122,58.9,24.7,189,79.4,54.5,42.9,66.2,151,154,256,77.2,89.9,101
